This passage reports binding results from article PMC10244696, “Thioredoxin TRXo1 is involved in ABA perception via PYR1 redox regulation” (Redox Biology, 2023).

Protein sequences, listed by entry. Tags and fused reporters are not part of them. Residues count along the entry.
UniProt P02769, residues 25-607: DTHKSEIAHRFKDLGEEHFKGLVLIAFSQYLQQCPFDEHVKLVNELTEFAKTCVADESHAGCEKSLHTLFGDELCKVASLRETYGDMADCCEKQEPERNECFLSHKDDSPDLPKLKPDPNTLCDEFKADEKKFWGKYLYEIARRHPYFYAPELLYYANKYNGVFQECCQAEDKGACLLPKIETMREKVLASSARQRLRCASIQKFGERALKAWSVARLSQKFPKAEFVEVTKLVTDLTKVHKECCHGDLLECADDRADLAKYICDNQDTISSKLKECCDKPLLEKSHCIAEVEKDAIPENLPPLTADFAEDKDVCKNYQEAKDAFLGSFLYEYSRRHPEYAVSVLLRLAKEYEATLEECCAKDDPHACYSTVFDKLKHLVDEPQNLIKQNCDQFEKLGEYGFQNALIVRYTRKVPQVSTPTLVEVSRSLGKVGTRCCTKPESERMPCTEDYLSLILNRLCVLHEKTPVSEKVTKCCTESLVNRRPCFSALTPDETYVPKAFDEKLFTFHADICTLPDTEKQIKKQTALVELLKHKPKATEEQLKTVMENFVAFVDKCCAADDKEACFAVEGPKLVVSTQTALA

Assay [1] has as its target bovine serum albumin (bovine) (UniProt P02769). As to the kind of experiment: far-Western, overlay or dot blot; 1 or 0.5 μg PsTRXo1 and HisPsTRXo1C37S and 10 μg BSA spotted on nitrocellulose, overlaid with 10 μg/ml HisAtPYR1 in TBS, 2 h, room temperature; detected with anti-PYR1; both purified.
For assay [2], the target named is recombinant HisAtPYR1 (Arabidopsis thaliana) (UniProt O49686). As to the kind of experiment: SDS-PAGE and Western blot of oligomeric forms; recombinant HisAtPYR1 in 20 mM Tris-HCl pH 7.9 treated with 2 mM DTT, 30 min, room temperature; SDS-PAGE, anti-AtPYR1; both purified. In general terms: A western blot detects proteins with antibodies after separation by electrophoresis.

In assay [3] the target is T1, recombinant HisAtPYR1 (Arabidopsis thaliana), O49686.
T1 chain: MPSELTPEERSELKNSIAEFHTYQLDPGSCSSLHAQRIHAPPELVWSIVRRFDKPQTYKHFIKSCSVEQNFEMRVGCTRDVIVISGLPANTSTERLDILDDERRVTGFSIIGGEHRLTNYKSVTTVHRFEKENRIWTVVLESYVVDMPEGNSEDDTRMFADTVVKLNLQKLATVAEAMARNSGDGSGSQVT
As to the kind of experiment: disulfide mapping by bottom-up LC-MS/MS; recombinant PYR1, DTT-treated and then 4 mM H2O2 (with or without 2 mM dimedone), free thiols labelled with 4 mM NEM, trypsin, nano LC-MS on Orbitrap Fusion Lumos, pLink2; no S-S found in the DTT-treated protein; both purified. To be noted: remark: other sources report otherwise.

Assay [4] addresses AtPYR1 fused to a GFP half (BiFC) (Arabidopsis thaliana) (UniProt O49686). As to the kind of experiment: split reporter; BiFC with GFP halves (pNX, pXN, pCX, pXC) in agroinfiltrated Nicotiana benthamiana leaves, confocal microscopy after 72 h.

These are yes or no findings as the source states them, for the method shown. For some of these results: In cells and extracts the contact can be indirect. Some results given as binding are weak or reduced against the parent protein; the word gives no strength. For some of these results: Where a sequence is shown, tags or fusion partners need not be part of it.

“recombinant HisAtPYR1 (from UniProt O49686 1-191) (receptor)”: the binding entry in assay [1] is reported as “no binding (tested: 10 μg/ml HisAtPYR1)”; in assay [2], “binds weakly”.

B1: recombinant HisAtPYR1, O49686 1-191 (receptor)
chain: MPSELTPEERSELKNSIAEFHTYQLDPGSCSSLHAQRIHAPPELVWSIVRRFDKPQTYKHFIKSCSVEQNFEMRVGCTRDVIVISGLPANTSTERLDILDDERRVTGFSIIGGEHRLTNYKSVTTVHRFEKENRIWTVVLESYVVDMPEGNSEDDTRMFADTVVKLNLQKLATVAEAMARNSGDGSGSQVT
As for B1, in assay [3], the binding entry is given as “binds”.

B2: AtTRXo1 fused to a GFP half (BiFC) (enzyme, UniProt O64764 43-194)
chain: SSLIARNSLFTASNIGPSIDFNFSNTSLPHRRSLCSEAGGENGVVLVKSEEEFINAMSKAQDGSLPSVFYFTAAWCGPCRFISPVIVELSKQYPDVTTYKVDIDEGGISNTISKLNITAVPTLHFFKGGSKKGEVVGADVTKLKNLMEQLYK
In the case of B2, the binding result in assay [4] is “binds”.
